Earlier results in US11124758B2, “Bacteria culture medium and applications thereof” (priority 2013, dated 2021).
Some entries share one result that the patent states for a list of compounds. At least one structure is not confirmed: it was looked up by name or label, or the drawing left a doubt.

Conditions: cited from earlier work

For `Cc1onc(-c2ccccc2Cl)c1C(=O)N[C@@H]1C(=O)N2[C@@H]1SC(C)(C)[C@@H]2C(=O)O.Cc1onc(-c2ccccc2Cl)c1C(=O)N[C@@H]1C(=O)N2[C@@H]1SC(C)(C)[C@@H]2C(=O)O.c1ccc(CNCCNCc2ccccc2)cc1` [cloxacillin benzathine], the solubility is listed as 0.05 to 0.2 mg/mL.
